Article PMC7692554

By UniProt entry, the sequences of proteins in these tests, tags left out. Where a name states a change or a piece, a line headed by the entry shows the natural chain unless it says otherwise.
UniProt O84090: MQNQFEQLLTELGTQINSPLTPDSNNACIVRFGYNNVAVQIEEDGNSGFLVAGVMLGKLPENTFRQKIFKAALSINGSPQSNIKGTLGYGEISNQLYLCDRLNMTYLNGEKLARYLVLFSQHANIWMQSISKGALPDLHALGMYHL

Legend:
[1] = biological target: T1, Scc4 with an N-terminal His6-tag (His6-Scc4) (Chlamydia trachomatis) (UniProt O84670); test: pull-down; the two proteins co-expressed in E. coli; complex purified from clarified lysate by Ni-IMAC through the His6-tagged partner (Tris buffer pH 8.0, 300 mM NaCl), read by SDS-PAGE
T1 sequence: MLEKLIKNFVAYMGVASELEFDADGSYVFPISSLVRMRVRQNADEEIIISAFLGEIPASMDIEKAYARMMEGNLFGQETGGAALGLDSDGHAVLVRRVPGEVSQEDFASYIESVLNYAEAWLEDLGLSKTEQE

[2] = biological target: T2, Scc4 (specific chlamydia chaperone 4) (Chlamydia trachomatis) (UniProt O84670); test: NMR titration; 1H,15N-HSQC of 0.5 mM 15N-Scc4 with 0, 0.25, 0.5, 1.0, 1.5 and 2.0 moles of Scc1-FLAG per mole; NMR buffer (50 mM sodium phosphate, 10 mM DTT, pH 7.3), 300 K; both purified
T2 sequence: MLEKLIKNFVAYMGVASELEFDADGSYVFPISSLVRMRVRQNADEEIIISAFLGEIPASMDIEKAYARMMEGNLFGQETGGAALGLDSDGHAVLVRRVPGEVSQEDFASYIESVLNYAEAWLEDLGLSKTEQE

[3] = biological target: T1, Scc4 with an N-terminal His6-tag (His6-Scc4) (Chlamydia trachomatis); test: SEC; purified complex (co-expressed and co-purified; the renatured complex too), ProteoSEC 16/60 3-70 HR, NMR buffer (50 mM sodium phosphate, 10 mM DTT, pH 7.3); also after 2 days at room temperature; both purified
[4] = biological target: Scc1 with an N-terminal His6-tag (His6-Scc1) (Chlamydia trachomatis) (UniProt O84090); test: native gel or EMSA; purified in vivo-associated and renatured complexes, after purification and after 2 days at room temperature; 4-20% Tris/glycine gel, 25 mM Tris, 192 mM glycine, pH 8.3; purified Scc4 as migration reference; both purified
[5] = biological target: Scc1 with an N-terminal His6-tag (His6-Scc1) (Chlamydia trachomatis) (UniProt O84090); test: NMR (1H,15N-HSQC of free and bound protein compared); renatured, purified 15N-Scc4:His6-Scc1 complex at 0.35 mM against free 15N-Scc4; NMR buffer, 300 K; both purified
[6] = biological target: Scc1 with an N-terminal His6-tag (His6-Scc1) (Chlamydia trachomatis) (UniProt O84090); test: native gel or EMSA + SEC; purified on-column-associated complex (Scc4 from lysate, immobilised His6-Scc1), after purification and after 2 days at room temperature; both purified
[7] = biological target: Scc1 with an N-terminal His6-tag (His6-Scc1) (Chlamydia trachomatis) (UniProt O84090); test: pull-down; the two proteins co-expressed in E. coli; complex purified from clarified lysate by Ni-IMAC through the His6-tagged partner (Tris buffer pH 8.0, 300 mM NaCl), read by SDS-PAGE
[8] = biological target: Scc1 with an N-terminal His6-tag (His6-Scc1) (Chlamydia trachomatis) (UniProt O84090); test: SEC; purified complex (co-expressed and co-purified; the renatured complex too), ProteoSEC 16/60 3-70 HR, NMR buffer (50 mM sodium phosphate, 10 mM DTT, pH 7.3); also after 2 days at room temperature; both purified
[9] = biological target: Scc1 with an N-terminal His6-tag (His6-Scc1) (Chlamydia trachomatis) (UniProt O84090); test: pull-down; on-column association: 15N-Scc4 in clarified lysate loaded on His6-Scc1 immobilised on Ni-IMAC resin, washed with Tris buffer, eluted with 500 mM imidazole, SDS-PAGE; only the target purified
[10] = biological target: Scc1 with an N-terminal His6-tag (His6-Scc1) (Chlamydia trachomatis) (UniProt O84090); test: pull-down; renatured association: purified His6-Scc1 inclusion bodies denatured in 6 M GuHCl, diluted to 2 M GuHCl with refolding buffer, added dropwise to clarified Scc4 lysate (final 0.75-1.0 M GuHCl); Ni-IMAC, SDS-PAGE; only the target purified

Molecule: Scc1 with a C-terminal FLAG tag (Scc1-FLAG) (from UniProt O84090)
- binding [1]: binds
- binding [2]: binds weakly
- binding [3]: binds

B1: Scc4 (specific chlamydia chaperone 4) (protein, UniProt O84670 1-133)
chain: MLEKLIKNFVAYMGVASELEFDADGSYVFPISSLVRMRVRQNADEEIIISAFLGEIPASMDIEKAYARMMEGNLFGQETGGAALGLDSDGHAVLVRRVPGEVSQEDFASYIESVLNYAEAWLEDLGLSKTEQE
- binding [4]: binds
- binding [5]: binds
- binding [6]: binds
- binding [7]: binds
- binding [8]: binds
- binding [9]: binds
- binding [10]: binds

These are yes or no findings as the source states them, for the method shown. Binding calls can cover weak binding; strength is not graded here. For some of these results: In cells and extracts the contact can be indirect. For some of these results: Sequences can lack the tags named with a protein.
